Test results from US20200407435A1.
Changes are numbered by the printed parent chain. No constants are given. Whether binding was seen depends on the method and setting. Some binding calls cover weakened binding; strength is not graded here.

Amino acid sequences for entries named in this document (tags omitted). A change or cut given only in a name is not applied to a line headed by its entry. Residues count along the entry.
UniProt O15123: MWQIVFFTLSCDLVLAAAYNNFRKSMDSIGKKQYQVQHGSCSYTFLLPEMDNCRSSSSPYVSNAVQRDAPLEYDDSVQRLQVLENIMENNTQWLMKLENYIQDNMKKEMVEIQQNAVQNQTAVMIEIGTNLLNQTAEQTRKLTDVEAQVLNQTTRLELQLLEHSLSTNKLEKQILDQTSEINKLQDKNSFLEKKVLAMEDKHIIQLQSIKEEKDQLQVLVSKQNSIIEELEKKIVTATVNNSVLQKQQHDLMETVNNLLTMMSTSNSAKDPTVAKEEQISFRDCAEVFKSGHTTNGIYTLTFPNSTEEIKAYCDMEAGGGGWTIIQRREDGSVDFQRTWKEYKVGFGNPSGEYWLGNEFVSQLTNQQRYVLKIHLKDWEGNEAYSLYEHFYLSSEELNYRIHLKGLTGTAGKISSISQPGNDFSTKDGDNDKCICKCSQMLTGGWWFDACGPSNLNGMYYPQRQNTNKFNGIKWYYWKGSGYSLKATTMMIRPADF
Human ANGPT2 Dimer (CC-FLD): residues 74-496 of O15123
human ANGPT2 (SPR analyte): residues 275-496 of O15123

T1: rabbit ANGPT2 (rabbit) (UniProt G1T9B3)
T1 sequence: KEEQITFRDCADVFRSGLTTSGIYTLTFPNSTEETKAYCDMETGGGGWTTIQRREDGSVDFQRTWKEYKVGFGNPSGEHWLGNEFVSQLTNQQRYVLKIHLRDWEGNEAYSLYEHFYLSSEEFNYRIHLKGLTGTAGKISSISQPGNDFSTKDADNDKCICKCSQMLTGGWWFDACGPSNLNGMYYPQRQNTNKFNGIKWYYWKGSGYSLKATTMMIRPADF

B1: ANGPT2-opt-1 (humanized) (antibody, human IgG1, kappa, V domains shown)
VH: QVQLVQSGAEVKKPGSSVKVSCKASGYIFIDYFINWVRQAPGQGLEWMGKIGPGSGSSSSNEKFKGRVTITADKSTSTAYMELSSLRSEDTAVYYCAREAFDYEGDYYGMAYWGQGTLVTVSS
VL: EIVMTQSPATLSVSPGERATLSCKSSQSLLASGNQKNFLAWYQQKPGQAPRLLIYGASTRESGIPARFSGSGSGTEFTLTISSLQSEDFAVYYCQNDHSYPITFGQGTKLEIKR
B2: ANGPT2-opt-2 (humanized) (antibody, human IgG1, kappa, V domains shown)
VH: B1 VH with D31E
VL: B1 VL
B3: ANGPT2-opt-19 (humanized) (antibody, human IgG1, kappa, V domains shown)
VH: B1 VH with E104D
VL: B1 VL with K24R, S25A, L29V, A31S, N37S, S62T, N96Q
B4: ANGPT2-opt-13 (humanized) (antibody, human IgG1, kappa, V domains shown)
VH: B1 VH with E104D
VL: B1 VL with A31S, N37S, S62T
B5: ANGPT2-opt-31 (humanized) (antibody, human IgG1, kappa, V domains shown)
VH: B1 VH with E104D
VL: B1 VL with A31S, N37S
B6: chimeric lead CL-209881 (antibody, V domains shown)
VH: QVQLKQSGAELVKPGSSVKISCRASGYIFIDYFINWVKQRPGQGLEWIGKIGPGSGSSSSNEKFKGKATLTADKSSSTAYMQLSSLTSEDSAVYFCAREAFDYDGDYYGMAYWGQGTSVTVSS
VL: DIVMTQSPSSLSVSAGEKVTMSCKSSQSLLNSGNQKNFLAWYQQKPGQPPKLLIYGASTRESGVPDRFTGSGSGTDFTLTITSVQAEDLAVYYCQNDHSYPITFGSGTKLEIK

What follows are binders tested against human ANGPT2 (SPR analyte) (human) (UniProt O15123) (assay: SPR (ProteOn XPR36)).

Row | binding | Binder
1 | binds | B1
2 | binds | B2
3 | binds | B3
4 | binds | B4
5 | binds | B5

These binders were tested against cynomolgus (cyno) ANGPT2 (cynomolgus) (assay: affinity binding data (SPR)).

Row | binding | Binder
6 | binds | B1
7 | binds | B2
8 | binds | B3
9 | binds | B4
10 | binds | B5

Each binder was assayed against human ANGPT2 (SPR analyte) (human) (UniProt O15123) (assay: affinity binding data (SPR)).

Row | binding | Binder
11 | binds | B1
12 | binds | B2
13 | binds | B3
14 | binds | B4
15 | binds | B5

The binders below were run against T1, rabbit ANGPT2 (rabbit) (assay: affinity binding data (SPR)).

Row | binding | Binder
16 | binds | B1
17 | binds | B2
18 | binds | B3
19 | binds | B4
20 | binds | B5

Each binder was assayed against Human ANGPT2 Dimer (CC-FLD) (human) (UniProt O15123) (assay: flow cytometry blocking assay: human ANGPT2 dimer (CC-FLD) pre-incubated with antibody, then added to HEK293 human Tie2 cells at 4 C; bound ANGPT2 detected with anti-His-AF647; blocked partner: human Tie2).

Row | binding | Binder
21 | binds | B6
